{
  "source": "the supplement of paper PMC8728848",
  "assay_in_all_cases": "glycan array binding signal (z-score within array); higher = stronger binding",
  "conditions_in_all_cases": "glycan notation: IUPAC condensed, linker removed",
  "key": {"Gal6S(b1-4)Glc6S": {"molecular_target": "Gal6S(b1-4)Glc6S", "in_short": "(§1)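 The binding signal is a Z-score computed within each array. Data were drawn from 3228 arrays in the Consortium for Functional Glycomics database, restricted to those with a known protein sequence. Scores were averaged over arrays of the same protein sequence at different concentrations or buffers, and over linkers, and negative values can be taken as non-binding.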"}, "Gal6S(b1-4)GlcNAc": {"molecular_target": "Gal6S(b1-4)GlcNAc", "in_short": "as §1"}, "Gal6S(b1-4)GlcNAc6S": {"molecular_target": "Gal6S(b1-4)GlcNAc6S", "in_short": "as §1"}, "GalNAc(a1-3)Gal": {"molecular_target": "GalNAc(a1-3)Gal", "in_short": "as §1"}, "GalNAc(a1-3)GalNAc": {"molecular_target": "GalNAc(a1-3)GalNAc", "in_short": "as §1"}, "GalNAc(b1-3)Gal": {"molecular_target": "GalNAc(b1-3)Gal", "in_short": "as §1"}, "[1]": {"molecular_target": "GalNAc(b1-3)Gal(a1-4)Gal(b1-4)GlcNAc", "in_short": "as §1"}, "GalNAc(b1-3)GalNAc": {"molecular_target": "GalNAc(b1-3)GalNAc", "in_short": "as §1"}, "GalNAc(b1-4)GlcNAc": {"molecular_target": "GalNAc(b1-4)GlcNAc", "in_short": "as §1"}, "Glc(a1-4)Glc": {"molecular_target": "Glc(a1-4)Glc", "in_short": "as §1"}, "Glc(a1-6)Glc(a1-6)Glc": {"molecular_target": "Glc(a1-6)Glc(a1-6)Glc", "in_short": "as §1"}, "Glc(b1-4)Glc": {"molecular_target": "Glc(b1-4)Glc", "in_short": "as §1"}, "Glc(b1-6)Glc": {"molecular_target": "Glc(b1-6)Glc", "in_short": "as §1"}, "GlcA(b1-3)Gal": {"molecular_target": "GlcA(b1-3)Gal", "in_short": "as §1"}, "GlcA(b1-3)GlcNAc": {"molecular_target": "GlcA(b1-3)GlcNAc", "in_short": "as §1"}, "GlcA(b1-6)Gal": {"molecular_target": "GlcA(b1-6)Gal", "in_short": "as §1"}, "[2]": {"molecular_target": "GlcNAc(a1-3)Gal(b1-4)GlcNAc", "in_short": "as §1"}, "[3]": {"molecular_target": "GlcNAc(a1-6)Gal(b1-4)GlcNAc", "in_short": "as §1"}, "[4]": {"molecular_target": "GlcNAc(b1-2)Gal(b1-3)GalNAc", "in_short": "as §1"}, "[5]": {"molecular_target": "GlcNAc(b1-2)Man(a1-3)[GlcNAc(b1-2)Man(a1-6)]Man(b1-4)GlcNAc(b1-4)GlcNAc", "in_short": "as §1"}, "GlcNAc(b1-3)Gal": {"molecular_target": "GlcNAc(b1-3)Gal", "in_short": "as §1"}, "[6]": {"molecular_target": "GlcNAc(b1-3)Gal(b1-3)GalNAc", "in_short": "as §1"}, "GlcNAc(b1-3)Gal(b1-4)Glc": {"molecular_target": "GlcNAc(b1-3)Gal(b1-4)Glc", "in_short": "as §1"}, "[7]": {"molecular_target": "GlcNAc(b1-3)Gal(b1-4)GlcNAc", "in_short": "as §1"}, "[8]": {"molecular_target": "GlcNAc(b1-3)Gal(b1-4)GlcNAc(b1-3)Gal(b1-4)GlcNAc", "in_short": "as §1"}, "GlcNAc(b1-3)GalNAc": {"molecular_target": "GlcNAc(b1-3)GalNAc", "in_short": "as §1"}, "GlcNAc(b1-3)Man": {"molecular_target": "GlcNAc(b1-3)Man", "in_short": "as §1"}, "[9]": {"molecular_target": "GlcNAc(b1-3)[GlcNAc(b1-4)][GlcNAc(b1-6)]GlcNAc", "in_short": "as §1"}, "[10]": {"molecular_target": "GlcNAc(b1-3)[GlcNAc(b1-6)]Gal(b1-4)GlcNAc", "in_short": "as §1"}, "[11]": {"molecular_target": "GlcNAc(b1-3)[GlcNAc(b1-6)]GalNAc", "in_short": "as §1"}, "[12]": {"molecular_target": "GlcNAc(b1-4)Gal(b1-4)GlcNAc", "in_short": "as §1"}, "GlcNAc(b1-4)GlcNAc": {"molecular_target": "GlcNAc(b1-4)GlcNAc", "in_short": "as §1"}, "[13]": {"molecular_target": "GlcNAc(b1-4)GlcNAc(b1-4)GlcNAc", "in_short": "as §1"}, "[14]": {"molecular_target": "GlcNAc(b1-4)GlcNAc(b1-4)GlcNAc(b1-4)GlcNAc(b1-4)GlcNAc", "in_short": "as §1"}, "[15]": {"molecular_target": "GlcNAc(b1-4)GlcNAc(b1-4)GlcNAc(b1-4)GlcNAc(b1-4)GlcNAc(b1-4)GlcNAc", "in_short": "as §1"}, "[16]": {"molecular_target": "GlcNAc(b1-4)[GlcNAc(b1-6)]GalNAc", "in_short": "as §1"}, "[17]": {"molecular_target": "GlcNAc(b1-6)Gal(b1-4)GlcNAc", "in_short": "as §1"}, "GlcNAc(b1-6)GalNAc": {"molecular_target": "GlcNAc(b1-6)GalNAc", "in_short": "as §1"}},
  "note": "Some of the results follow.",
  "data": [
    {"binder": "RfpC (Mycobacterium tuberculosum), O07747 (protein) MHHHHHHSSGRENLYFQGHMASKSAMAAGLVTASMSLSTAVAHAGPSPNWDAVAQCESGGNWAANTGNGKYGGLQFKPATWAAFGGVGNPAAASREQQIAVANRVLAEQGLDAWPTCGAASGLPIALWSKPAQGIKGS", "values": [
      {"measurement": "glycan array binding signal (z-score)", "setting": "Gal6S(b1-4)Glc6S", "result": 0.121},
      {"measurement": "glycan array binding signal (z-score)", "setting": "Gal6S(b1-4)GlcNAc", "result": -1.18},
      {"measurement": "glycan array binding signal (z-score)", "setting": "Gal6S(b1-4)GlcNAc6S", "result": 1.16},
      {"measurement": "glycan array binding signal (z-score)", "setting": "GalNAc(a1-3)Gal", "result": 0.898},
      {"measurement": "glycan array binding signal (z-score)", "setting": "GalNAc(a1-3)GalNAc", "result": -0.5},
      {"measurement": "glycan array binding signal (z-score)", "setting": "GalNAc(b1-3)Gal", "result": 0.853},
      {"measurement": "glycan array binding signal (z-score)", "setting": "[1]", "result": 3.74},
      {"measurement": "glycan array binding signal (z-score)", "setting": "GalNAc(b1-3)GalNAc", "result": 0.625},
      {"measurement": "glycan array binding signal (z-score)", "setting": "GalNAc(b1-4)GlcNAc", "result": -0.564},
      {"measurement": "glycan array binding signal (z-score)", "setting": "Glc(a1-4)Glc", "result": 0.301},
      {"measurement": "glycan array binding signal (z-score)", "setting": "Glc(a1-6)Glc(a1-6)Glc", "result": 2.41},
      {"measurement": "glycan array binding signal (z-score)", "setting": "Glc(b1-4)Glc", "result": -0.789},
      {"measurement": "glycan array binding signal (z-score)", "setting": "Glc(b1-6)Glc", "result": -0.717},
      {"measurement": "glycan array binding signal (z-score)", "setting": "GlcA(b1-3)Gal", "result": -0.934},
      {"measurement": "glycan array binding signal (z-score)", "setting": "GlcA(b1-3)GlcNAc", "result": 1.57},
      {"measurement": "glycan array binding signal (z-score)", "setting": "GlcA(b1-6)Gal", "result": -0.959},
      {"measurement": "glycan array binding signal (z-score)", "setting": "[2]", "result": -0.298},
      {"measurement": "glycan array binding signal (z-score)", "setting": "[3]", "result": -0.432},
      {"measurement": "glycan array binding signal (z-score)", "setting": "[4]", "result": 0.268},
      {"measurement": "glycan array binding signal (z-score)", "setting": "[5]", "result": 0.128},
      {"measurement": "glycan array binding signal (z-score)", "setting": "GlcNAc(b1-3)Gal", "result": -0.187},
      {"measurement": "glycan array binding signal (z-score)", "setting": "[6]", "result": 1.06},
      {"measurement": "glycan array binding signal (z-score)", "setting": "GlcNAc(b1-3)Gal(b1-4)Glc", "result": 1.79},
      {"measurement": "glycan array binding signal (z-score)", "setting": "[7]", "result": -0.123},
      {"measurement": "glycan array binding signal (z-score)", "setting": "[8]", "result": -0.618},
      {"measurement": "glycan array binding signal (z-score)", "setting": "GlcNAc(b1-3)GalNAc", "result": -0.705},
      {"measurement": "glycan array binding signal (z-score)", "setting": "GlcNAc(b1-3)Man", "result": -0.648},
      {"measurement": "glycan array binding signal (z-score)", "setting": "[9]", "result": 0.738},
      {"measurement": "glycan array binding signal (z-score)", "setting": "[10]", "result": -0.031},
      {"measurement": "glycan array binding signal (z-score)", "setting": "[11]", "result": -1},
      {"measurement": "glycan array binding signal (z-score)", "setting": "[12]", "result": -0.792},
      {"measurement": "glycan array binding signal (z-score)", "setting": "GlcNAc(b1-4)GlcNAc", "result": -0.077},
      {"measurement": "glycan array binding signal (z-score)", "setting": "[13]", "result": -0.885},
      {"measurement": "glycan array binding signal (z-score)", "setting": "[14]", "result": 0.708},
      {"measurement": "glycan array binding signal (z-score)", "setting": "[15]", "result": -1.11},
      {"measurement": "glycan array binding signal (z-score)", "setting": "[16]", "result": -0.277},
      {"measurement": "glycan array binding signal (z-score)", "setting": "[17]", "result": -0.235},
      {"measurement": "glycan array binding signal (z-score)", "setting": "GlcNAc(b1-6)GalNAc", "result": 0.185}
    ]}
  ]
}
